Article PMC3410853 (PLoS Pathogens, 2012)
These are yes or no findings as the source states them, for the method shown. Some results given as binding are weak or reduced against the parent protein; the word gives no strength.

How the values were obtained:
[1] = molecular target: engineered soluble pAPN (ectodomain, residues 36 to 963) (porcine) (UniProt P15145); assay: crystal structure; both purified
[2] = molecular target: engineered soluble pAPN (ectodomain, residues 36 to 963) (porcine) (UniProt P15145); assay: crystal structure; two crystal structures of the pAPN ectodomain alone, crystallized using distinct conditions (not shown); both purified

B1: engineered soluble pAPN (ectodomain, residues 36 to 963) (domain or fragment)
chain: EKNKNAEHVPQAPTSPTITTTAAITLDQSKPWNRYRLPTTLLPDSYNVTLRPYLTPNADGLYIFKGKSIVRLLCQEPTDVIIIHSKKLNYTTQGHMVVLRGVGDSQVPEIDRTELVELTEYLVVHLKGSLQPGHMYEMESEFQGELADDLAGFYRSEYMEGNVKKVLATTQMQSTDARKSFPCFDEPAMKATFNITLIHPNNLTALSNMPPKGSSTPLAEDPNWSVTEFETTPVMSTYLLAYIVSEFQSVNETAQNGVLIRIWARPNAIAEGHGMYALNVTGPILNFFANHYNTSYPLPKSDQIALPDFNAGAMENWGLVTYRENALLFDPQSSSISNKERVVTVIAHELAHQWFGNLVTLAWWNDLWLNEGFASYVEYLGADHAEPTWNLKDLIVPGDVYRVMAVDALASSHPLTTPAEEVNTPAQISEMFDSISYSKGASVIRMLSNFLTEDLFKEGLASYLHAFAYQNTTYLDLWEHLQKAVDAQTSIRLPDTVRAIMDRWTLQMGFPVITVDTKTGNISQKHFLLDSESNVTRSSAFDYLWIVPISSIKNGVMQDHYWLRDVSQAQNDLFKTASDDWVLLNVNVTGYFQVNYDEDNWRMIQHQLQTNLSVIPVINRAQVIYDSFNLATAHMVPVTLALDNTLFLNGEKEYMPWQAALSSLSYFSLMFDRSEVYGPMKKYLRKQVEPLFQHFETLTKNWTERPENLMDQYSEINAISTACSNGLPQCENLAKTLFDQWMSDPENNPIHPNLRSTIYCNAIAQGGQDQWDFAWGQLQQAQLVNEADKLRSALACSNEVWLLNRYLGYTLNPDLIRKQDATSTINSIASNVIGQPLAWDFVQSNWKKLFQDYGGGSFSFSNLIQGVTRRFSSEFELQQLEQFKKNNMDVGFGSGTRALEQALEKTKANIKWVKENKEVVLNWFIEHS
- binding [1]: binds
- binding [2]: binds
